Here are results for 17 molecules from patent publication US6265617A, “Process for the preparation of 3,5,5-trimethylcyclohexa-3-en-1-one (β-isophorone) by isomerization of 3,5,5- trimethylcyclohexa-2-en-1-one (α-isophorone)” (Degussa-Huls Aktiengesellschaft, priority 1998, dated 2001).

The series in a line: Catalyst activity in liquid-phase isomerization of α-isophorone to β-isophorone. The settings on record: boiling point, normal pressure, 25 vol.% withdrawal. The text has this: The apparatus for carrying out the isomerization consists of a mushroom-shaped heater, an isomerization flask with attached distillation column, through which a primary mixture composed of α-IP and β-IP is withdrawn, and a pump for recirculating the unreacted α-isophorone left after the purifying distillation of β-IP. […] The suspension is heated to boiling point at normal pressure and the quantity of the α-IP delivered by a Telab pump is coordinated with the quantity of the distillate withdrawn.
The primary distillate obtained is conveyed to a distillation column operating at a partial vacuum of 5 mbar to 100 mbar. […] The bottom product consisting of unreacted α-isophorone is returned to the isomerization reactor.
Technical sodium hydroxide in various concentrations is stirred into α-IP in the apparatus already described above. With the identical continuous procedure (see Example 1), at the top of the isomerization unit a withdrawal rate of 25 vol.% of a primary distillate is established, based on the quantity of isomerization and the reflux ratio.
Technical potassium carbonate in various concentrations is stirred into α-IP in the apparatus already described above. With the identical continuous procedure (see Example 1), at the top of the isomerization unit a withdrawal rate of 25 vol.% of a primary distillate is established, based on the quantity of isomerization and the reflux ratio.
Various catalysts containing alkali-metal cations are compared with regard to their catalytic activity during the isomerization under conditions corresponding to those in the previous Examples.
Various alkali-metal bases and alkaline-earth bases used as catalysts are compared with regard to their catalytic activity during the isomerization under conditions corresponding to those in the previous Examples.
Various catalysts containing alkali-metal cations and the elements are compared with regard to their catalytic activity during the isomerization under conditions corresponding to those in the previous Examples.

[1] abbreviates: 2 × 10^-2 mol.% catalyst per mol α-IP.
Setting [2] is: 2 × 10^-1 mol.% catalyst per mol α-IP.
Setting [3] is: 2 × 10^-0 mol.% catalyst per mol α-IP.

On to `O=C(O)O` [Li2 CO3], for which the “Rate of formation of HB (high boilers)” value under setting [1] amounted to 0.4 g HB/h/liter α-IP.

In the case of `[NH2-].[Na+]` [NaNH2, sodium amide], the “Rate of formation of HB (high boilers)” value under setting [1] worked out at 1.0 g HB/h/liter α-IP.

In the case of `[Li+].[OH-]` [LiOH], the “Rate of formation of HB (high boilers)” value under setting [1] was 3.0 g HB/h/liter α-IP.

Turning to `[K+].[OH-]` [KOH], the “Rate of formation of HB (high boilers)” value under setting [1] came to 3.9 g HB/h/liter α-IP.

As for `[Mg+2].[OH-].[OH-]` [Mg(OH)2], the “Rate of formation of HB (high boilers)” value under setting [2] stood at 0.7 g HB/h/liter α-IP and the “Rate of formation of HB (high boilers)” value under setting [1] is given as 0.8 g HB/h/liter α-IP.

Turning to `O=C(O)O` [NaHCO3], the “Rate of formation of HB (high boilers)” value under setting [1] is listed as 0.8 g HB/h/liter α-IP.

Turning to `[AlH4-].[Li+]` [LiAIH4], under setting [1], the “Rate of formation of HB (high boilers)” value is reported as 0.8 g HB/h/liter α-IP.

Take `[Na+].[OH-]` [NaOH, sodium hydroxide]: the “Rate of formation of HB (high boilers)” value is, setting by setting: under setting [2], 35.4 g HB/h/liter α-IP; under setting [1], 0.5 g HB/h/liter α-IP.

For `[Ca+2].[OH-].[OH-]` [Ca(OH)2], the “Rate of formation of HB (high boilers)” value under setting [1] worked out at 0.4 g HB/h/liter α-IP.

For the molecule `CO` [Na(OMe)], the “Rate of formation of HB (high boilers)” value under setting [1] came to 0.7 g HB/h/liter α-IP.

As to `[Na]` [Na], the “Rate of formation of HB (high boilers)” value under setting [1] came to 0.7 g HB/h/liter α-IP.

On to `O=C(O)O` [KHCO3], for which, under setting [1], the “Rate of formation of HB (high boilers)” value came out at 3.0 g HB/h/liter α-IP.

As to `O=S(=O)([O-])O.[K+]` [kHSO4], under setting [1], the “Rate of formation of HB (high boilers)” value was found to be 0.7 g HB/h/liter α-IP.

In the case of `O=C(O)O` [Na2 CO3, sodium carbonate], the “Rate of formation of HB (high boilers)” value came to 1.7 g HB/h/liter α-IP under setting [3], 0.6 g HB/h/liter α-IP under setting [2] and 0.6 g HB/h/liter α-IP under setting [1].

As for `[BH4-].[Li+]` [LiBH4], the “Rate of formation of HB (high boilers)” value under setting [1] was 0.8 g HB/h/liter α-IP.

In the case of `[H-].[Na+]` [NaH], the “Rate of formation of HB (high boilers)” value under setting [1] was 0.8 g HB/h/liter α-IP.

On to `O=C(O)O` [K2 CO3, potassium carbonate], for which the “Rate of formation of HB (high boilers)” value under setting [3] was 57.2 g HB/h/liter α-IP, the “Rate of formation of HB (high boilers)” value under setting [2] is reported as 26.3 g HB/h/liter α-IP and the “Rate of formation of HB (high boilers)” value under setting [1] was found to be 0.9 g HB/h/liter α-IP.
